Test results published in PMC7966362.
No constants are given. Whether binding was seen depends on the method and setting. Binding seen in cells or lysates may run through a third protein. Some entries that bind do so weakly or less than the wild type. Sequences can lack the tags named with a protein. Blank lines part the entries; values can stand above or below the molecule they belong to.

Sequences of proteins named here, by UniProt entry; tags and fusion partners are left off.
UniProt Q80SW1: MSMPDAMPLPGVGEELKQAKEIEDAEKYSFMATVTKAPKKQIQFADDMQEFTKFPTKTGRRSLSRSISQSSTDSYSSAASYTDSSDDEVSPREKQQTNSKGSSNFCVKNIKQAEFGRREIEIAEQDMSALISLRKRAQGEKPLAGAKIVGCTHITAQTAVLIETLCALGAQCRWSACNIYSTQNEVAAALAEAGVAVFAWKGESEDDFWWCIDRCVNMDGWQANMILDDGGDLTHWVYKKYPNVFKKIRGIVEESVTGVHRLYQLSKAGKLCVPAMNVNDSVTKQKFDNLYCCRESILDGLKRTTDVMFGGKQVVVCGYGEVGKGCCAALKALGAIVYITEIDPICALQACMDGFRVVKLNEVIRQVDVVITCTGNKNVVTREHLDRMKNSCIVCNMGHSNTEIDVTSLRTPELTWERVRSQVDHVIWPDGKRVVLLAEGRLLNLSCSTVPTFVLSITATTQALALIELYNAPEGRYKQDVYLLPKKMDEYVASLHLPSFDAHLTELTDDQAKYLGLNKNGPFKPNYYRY

Assays:
[1] = target: T1, HA-tagged AE2 wild type (full length, mouse) (mouse) (UniProt P13808); experiment: co-IP; HEK 293T cells transfected with tagged constructs; lysis buffer 10 mM HEPES pH 7.4, 100 mM NaCl, 2 mM EDTA, 0.1% Triton X-100, 10 mM sodium fluoride; antibodies and Protein G overnight at 4 °C; immunoblot
T1 sequence: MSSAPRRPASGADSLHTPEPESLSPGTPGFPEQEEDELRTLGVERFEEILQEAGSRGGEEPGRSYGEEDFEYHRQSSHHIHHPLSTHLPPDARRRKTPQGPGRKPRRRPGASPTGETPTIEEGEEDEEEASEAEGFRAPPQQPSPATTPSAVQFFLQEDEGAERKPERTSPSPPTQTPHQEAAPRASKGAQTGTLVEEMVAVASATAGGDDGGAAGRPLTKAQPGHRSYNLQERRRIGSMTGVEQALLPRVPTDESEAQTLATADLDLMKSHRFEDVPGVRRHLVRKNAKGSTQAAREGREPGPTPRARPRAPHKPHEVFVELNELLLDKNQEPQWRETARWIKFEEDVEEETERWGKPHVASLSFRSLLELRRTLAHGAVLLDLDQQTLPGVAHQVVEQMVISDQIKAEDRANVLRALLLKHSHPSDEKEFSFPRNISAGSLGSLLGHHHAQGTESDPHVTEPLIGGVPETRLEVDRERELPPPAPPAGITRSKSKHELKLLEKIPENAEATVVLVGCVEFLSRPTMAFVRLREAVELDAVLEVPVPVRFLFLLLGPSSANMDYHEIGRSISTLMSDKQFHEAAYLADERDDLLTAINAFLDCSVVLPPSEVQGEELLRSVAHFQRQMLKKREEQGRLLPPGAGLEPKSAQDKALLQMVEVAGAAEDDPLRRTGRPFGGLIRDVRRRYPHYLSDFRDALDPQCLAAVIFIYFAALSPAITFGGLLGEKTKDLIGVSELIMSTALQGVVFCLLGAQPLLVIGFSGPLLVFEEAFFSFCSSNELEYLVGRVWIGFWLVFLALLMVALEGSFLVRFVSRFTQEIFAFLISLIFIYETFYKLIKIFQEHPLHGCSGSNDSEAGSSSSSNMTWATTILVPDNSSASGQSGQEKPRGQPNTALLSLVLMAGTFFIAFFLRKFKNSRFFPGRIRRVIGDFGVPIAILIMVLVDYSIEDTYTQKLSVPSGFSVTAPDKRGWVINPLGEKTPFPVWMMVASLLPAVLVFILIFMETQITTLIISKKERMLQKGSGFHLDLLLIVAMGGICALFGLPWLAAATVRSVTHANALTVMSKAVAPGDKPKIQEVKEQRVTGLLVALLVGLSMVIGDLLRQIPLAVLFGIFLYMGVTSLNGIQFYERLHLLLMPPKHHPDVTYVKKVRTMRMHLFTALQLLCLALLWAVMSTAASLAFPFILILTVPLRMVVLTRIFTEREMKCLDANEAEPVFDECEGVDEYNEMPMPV

[2] = target: HA-tagged IRBIT, in IRBIT/L-IRBIT DKO cells (UniProt Q80SW1); experiment: co-IP; IRBIT/L-IRBIT double knockout B16-F10 cells transfected with GFP-tagged AE2 and HA-tagged IRBIT and/or FLAG-tagged L-IRBIT; IP with anti-HA or anti-FLAG antibody; immunoblot
[3] = target: FLAG-tagged IRBIT wild type (UniProt Q80SW1); experiment: co-IP; HEK 293T cells transfected with tagged constructs; lysis buffer 10 mM HEPES pH 7.4, 100 mM NaCl, 2 mM EDTA, 0.1% Triton X-100, 10 mM sodium fluoride; antibodies and Protein G overnight at 4 °C; immunoblot

binding [1]: binds
Molecule: FLAG-tagged IRBIT wild type (from UniProt Q80SW1 1-530)

binding [2]: binds
B1: GFP-tagged AE2 wild type, in IRBIT/L-IRBIT DKO cells (protein, UniProt P13808 1-1237)
chain: T1 sequence

binding [3]: binds
B2: HA-tagged AE2 wild type (full length, mouse) (protein, UniProt P13808 1-1237)
chain: T1 sequence
